Measurements: PubChem BioAssay AID902 (National Center for Advancing Translational Sciences (NCATS), 2007)
The entries are a selection whose mix differs from that of the whole data set. Records with an inconclusive call do not appear. Calls of active or inactive are those of the source. The call rests on the fitted dose curve; in most records, active means well fitted cell-killing curve with a large enough effect; inconclusive means small, poorly fitted or top-dose-only effect; inactive means no such curve, though single readings can be large or run the other way.

Assay: qHTS Screen for Compounds that Selectively Target Cancer Cells with p53 Mutations: Cytotoxicity of p53ts Cells at the Nonpermissive Temperature; further: nearly all actives have a fitted effect of over 55% in size
Details: H1299-p53A138V viability at 39C, ATP luminescence, 24 h; series mostly up to 46.1 µM; activity change, negative = cell killing: at the top concentration
Source text: NIH Chemical Genomics Center [NCGC] NIH Molecular Libraries Screening Centers Network [MLSCN] MLSCN Grant: 1 X01 MH079844-01 Assay Submitter (PI): Dr. SUN, YI, University of Michigan NCGC Assay Overview: Synthetic Lethal Screen for Compounds to Kill Cancer Cells with p53 Mutation. Tumor suppressor gene p53 serves as a major cellular barrier against tumorigenesis. […] The goal of this screening is to identify small molecule probes that selectively kill cancer cells with mutations in p53. This screening was carried out using two lines of H1299 lung cancer cells. The H1299-p53 A138V line express a temperature sensitive p53 mutant (p53ts) in which the mutant p53 protein (A138V) is in the mutant confirmation when grown at 39C (the nonpermissive temperature) and in the wild type conformation when grown at 32C (the permissive temperature). A H1299-neo line (p53 null) grown at both 39C and 32C were used as counter-screens to filter out false positive associated with temperature shifting. The small molecular compounds that selectively target mutant p53-containing cancer cells were selected as candidate probes for further study. A cytotoxicity assay based on the measurement of ATP contents in cells was used in this screen. Concentration-responses of all the compounds in the library collection were determined in qHTS using the cell lines and temperature conditions as above.
NCGC Assay Protocol Summary: Both the H1299-p53A138V and H1299-neo cell lines were provided by Dr.Yi Sun, a PI at the University Michigan. The cells were maintained and cultured at 37C. The resuspended frozen cells were used to plate the cells in the 1536-well assay plates at a density of 600 cells per well in 5 ul medium. The assay plates with the cells were incubated at 37C for 16 to 30 hours before the experiments. The library compounds in DMSO solution were added to the cells in assay plates and incubated 24 hours at 39C (for mutant p53 conformation) or 32C (for normal p53 conformation as control). An ATP_lite assay kit (PerkinElmer) was used to determine the cell viability. Tomaxifen (100uM) was used as the positive control for cell killing. Data were normalized to the controls for basal activity (DMSO only) and 100% killing (100uM tamoxifen). AC50 values were determined from concentration-response data modeled with the standard Hill equation. P53 assay protocol: 1. Reagent; 5 uL H1299-p53A138V or H1299-neo cell cells/well 2. Time; overnight; 37C incubation 3. Compounds; 23 nL; 5.9 nM to 46 uM 4. Controls; 23 nL; Tamoxifen 100 uM 5. Time; 24 hr; 39C incubation 6. Reagent; 3 uL; ATP_Lite reagent 7. Time; 20 min; Room Temperature 8. Detection; Luminescence; Viewlux plate reader Keywords: p53, synthetic lethal, cancer, cell viability, cytotoxicity, H1299 cell line, luminescence, MLSMR, MLSCN, NIH Roadmap, qHTS, NCGC
On the % scale 0 is the no-effect control and ±100 the full control effect; potency means the concentration at half of the fitted maximal effect.

SMILES	activity change, negative = cell killing	Potency
CCOC(=O)c1ccc(NC(=O)CSc2nc3c(c(=O)n2CC)SC(C)C3)cc1 (centres undefined)	inactive: 43%	
CCn1c(SCc2ccc(F)cc2Cl)nc(=O)c2c(C(=O)OC)cc(C3CC3)nc21		active: 12.6 µM
Nc1nc2ccc(OC(F)(F)F)cc2s1	inactive: 0.588% [at 20.6 µM]	
Fc1ccc(-n2ncc3c(NCCC4=CCCCC4)ncnc32)cc1	inactive: 13.8%	
